According to publication PMC5980993:
Results are given in words; binding and its absence hold for the method and conditions named. In cells and extracts the contact can be indirect. Some binding calls cover weakened binding; strength is not graded here.

The chains behind the UniProt entries cited, without tags or fusion partners.
UniProt Q8R4B8: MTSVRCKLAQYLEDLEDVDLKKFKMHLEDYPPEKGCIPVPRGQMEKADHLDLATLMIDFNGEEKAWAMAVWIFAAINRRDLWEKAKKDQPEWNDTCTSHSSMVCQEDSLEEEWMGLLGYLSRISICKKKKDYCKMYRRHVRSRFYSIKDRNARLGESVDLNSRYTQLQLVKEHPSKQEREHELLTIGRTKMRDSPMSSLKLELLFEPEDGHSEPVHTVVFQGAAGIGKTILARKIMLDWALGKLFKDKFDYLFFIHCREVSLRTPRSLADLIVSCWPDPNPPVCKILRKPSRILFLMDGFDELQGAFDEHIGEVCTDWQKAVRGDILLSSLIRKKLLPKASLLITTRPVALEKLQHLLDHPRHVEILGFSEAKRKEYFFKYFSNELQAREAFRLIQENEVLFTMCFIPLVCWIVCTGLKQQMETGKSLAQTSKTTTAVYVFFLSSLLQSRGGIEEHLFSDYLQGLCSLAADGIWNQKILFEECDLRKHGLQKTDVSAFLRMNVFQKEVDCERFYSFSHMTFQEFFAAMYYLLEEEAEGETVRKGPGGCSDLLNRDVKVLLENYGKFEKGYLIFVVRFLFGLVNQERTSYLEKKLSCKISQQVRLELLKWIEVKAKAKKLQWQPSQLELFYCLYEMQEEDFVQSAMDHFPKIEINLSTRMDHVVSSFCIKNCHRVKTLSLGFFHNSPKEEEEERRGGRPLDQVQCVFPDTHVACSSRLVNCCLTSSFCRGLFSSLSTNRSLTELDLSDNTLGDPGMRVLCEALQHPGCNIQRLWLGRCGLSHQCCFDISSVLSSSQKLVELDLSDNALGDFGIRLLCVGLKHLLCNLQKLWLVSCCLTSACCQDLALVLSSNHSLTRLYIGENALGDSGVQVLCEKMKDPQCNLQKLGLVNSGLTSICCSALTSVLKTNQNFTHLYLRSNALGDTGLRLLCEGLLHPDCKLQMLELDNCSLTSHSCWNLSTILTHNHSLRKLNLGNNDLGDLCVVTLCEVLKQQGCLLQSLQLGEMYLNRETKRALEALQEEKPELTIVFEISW

B1: caspase-1 (enzyme, UniProt P29452 1-402)
chain: MADKILRAKRKQFINSVSIGTINGLLDELLEKRVLNQEEMDKIKLANITAMDKARDLCDHVSKKGPQASQIFITYICNEDCYLAGILELQSAPSAETFVATEDSKGGHPSSSETKEEQNKEDGTFPGLTGTLKFCPLEKAQKLWKENPSEIYPIMNTTTRTRLALIICNTEFQHLSPRVGAQVDLREMKLLLEDLGYTVKVKENLTALEMVKEVKEFAACPEHKTSDSTFLVFMSHGIQEGICGTTYSNEVSDILKVDTIFQMMNTLKCPSLKDKPKVIIIQACRGEKQGVVLLKDSVRDSEEDFLTDAIFEDDGIKKAHIEKDFIAFCSSTPDNVSWRHPVRGSLFIESLIKHMKEYAWSCDLEDIFRKVRFSFEQPEFRLQMPTADRVTLTKRFYLFPGH

What was measured:
[1] = biological target: T1, Triggering receptors expressed on myeloid cells 2 (mouse (endogenous in BMDMs and corneas of C57BL/6 mice)) (UniProt Q99NH8); test: co-IP; endogenous proteins; lysate (Pierce IP lysis buffer) of BMDMs from WT C57BL/6 mice treated with HK-PA (MOI 5, 6 h) or stimulated with nigericin; anti-mouse TREM2 antibody and protein A overnight at 4°C; immunoblot with anti-TREM2, anti-NLRP3, anti-caspase-1
T1 sequence: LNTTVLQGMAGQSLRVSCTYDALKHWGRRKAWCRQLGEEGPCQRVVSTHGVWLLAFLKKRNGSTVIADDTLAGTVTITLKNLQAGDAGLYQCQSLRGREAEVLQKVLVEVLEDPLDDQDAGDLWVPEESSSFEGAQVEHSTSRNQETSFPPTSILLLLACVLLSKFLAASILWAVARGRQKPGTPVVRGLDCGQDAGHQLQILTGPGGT

[2] = biological target: T1, Triggering receptors expressed on myeloid cells 2 (mouse (endogenous in BMDMs and corneas of C57BL/6 mice)); test: co-IP; endogenous proteins; lysate (Pierce IP lysis buffer) of pooled uninfected and P. aeruginosa-infected corneas of WT C57BL/6 mice, 5 days after infection; anti-mouse TREM2 antibody and protein A overnight at 4°C; immunoblot with anti-TREM2, anti-NLRP3, anti-caspase-1

| Molecule | binding [1] | binding [2] |
| --- | --- | --- |
| NLRP3 (from UniProt Q8R4B8 1-1033) | binds | binds |
| B1 | binds | binds |
